Values from PubChem BioAssay AID652272 (Drosophila RNAi Screening Center, 2013)
In all, the deposit lists about 21,000 reagents; shown is a random part of those with a known target gene and a result. Of all reagents, 503 (2.4%) got an active call. 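Raw plate light values, not normalised; calls rest on replicate z-scores that were not deposited; hits include reporter decreases as well as increases.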 Names joined by + are all predicted targets of the reagent. The record does not give: the amount of reagent, the time to read-out.

- Assay: 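Genes whose knock-down decreases or increases Hedgehog reporter output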 (primary screen)
- System: Drosophila clone 8 (Cl8) cells
- Reagent: long dsRNA against Drosophila genes
- Detection: 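Firefly light from a Hedgehog-responsive ptc promoter reporter and Renilla reference light, both read on a plate reader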
- Reading the numbers: firefly Hh reporter signal: higher = more ptc reporter light; Renilla reference signal: higher = more Renilla control light
- Active means: 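Called a hit if the two-replicate mean z-score lies below -2 or above +3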
- Meaning of the calls: active = hit: reporter lowered or raised; inactive = not a hit

no.	predicted target	DRSC id	firefly Hh reporter signal, replicate 1	firefly Hh reporter signal, replicate 2	firefly Hh reporter signal, replicate 3	Renilla reference signal, replicate 1	Renilla reference signal, replicate 2	activity call
1	CG31343	DRSC15887	1.06e5	85904		5414	3324	inactive
2	dah (discontinuous actin hexagon)	DRSC20320	1.28e5	73450		3334	1776	inactive
3	CG40948 (retired record)	DRSC20944	4.72e5	1.62e5		27649	3234	inactive
4	CG31538	DRSC12059	1.79e5			3355		inactive
5	CG14540	DRSC14884	3.39e5	64058		21610	5973	inactive
6	CG6739	DRSC02987	1.25e5	44272		2925	3764	inactive
7	zye	DRSC11784	1.09e5	1.46e5		3798	3498	inactive
8	klg (klingon)	DRSC13591	54836	1.79e5		12182	3689	inactive
9	klg (klingon)	DRSC16978	66875	5.23e5		3429	30845	inactive
10	CG33095	DRSC14441	4.71e5	75866		24856	2219	inactive
11	egh (egghead)	DRSC18771	66535	1.04e5		3142	4945	inactive
12	Spn (Spinophilin)	DRSC07986	86681	1.51e5		2485	6024	inactive
13	Spn (Spinophilin)	DRSC08490	88525	70059		4986	3146	inactive
14	Spn (Spinophilin)	DRSC08491	61540	32049		1952	2982	inactive
15	CSN5 (COP9 signalosome subunit 5)	DRSC16592	1.52e5	1.55e5		5332	5540	inactive
16	CG7420	DRSC00704	71808	75921		2696	3197	inactive
17	primo-2 + primo-1	DRSC16511	1.13e5	1.34e5		2807	3672	inactive
18	CG13722	DRSC08331	58088	58480		5579	4947	inactive
19	Hey (Hairy/E(spl)-related with YRPW motif)	DRSC07440	18807	7692		916	936	active
20	CG3744	DRSC15511	5.50e5	1.09e5		30461	3488	inactive
21	CCDC53 (Coiled-coil domain containing 53)	DRSC03056	74045	34368		2346	3852	inactive
22	CG2218	DRSC15428	1.11e5	1.09e5		2630	3429	inactive
23	CG6980	DRSC16162	1.31e5	72248		5177	2995	inactive
24	Kal1 (Kallmann syndrome 1)	DRSC15983	88791	49704		3814	2186	inactive
25	CG14823	DRSC10194	82404	71814		3473	3089	inactive
26	CG15767	DRSC18073	75101	1.73e5		3044	6813	inactive
27	RpL37A (Ribosomal protein L37A)	DRSC02899	49680	23948		2299	3891	active
28	MED15 (Mediator complex subunit 15)	DRSC00267	55216	1.02e5		3108	4171	inactive
29	CG11029	DRSC02119	90006	49845		2611	4296	inactive
30	CG3719	DRSC18493	6.35e5	1.03e5		3488	3488	inactive
31	bru2 (bruno 2)	DRSC01246	5.87e5	2.55e5		30797	12576	inactive
32	bru2 (bruno 2)	DRSC01247	5.01e5	2.06e5		20708	7442	inactive
33	bru2 (bruno 2)	DRSC01249	5.43e5	2.59e5		31685	10538	inactive
34	bru2 (bruno 2)	DRSC01250	5.07e5	2.34e5		25877	10354	inactive
35	bru2 (bruno 2)	DRSC02557	72369	20210		2204	2140	inactive
36	Orc2 (Origin recognition complex subunit 2)	DRSC16776	1.09e5	89394		4228	3776	inactive
37	CG12065	DRSC17798	91417	82508		2408	2292	inactive
38	CG12065	DRSC17799	93024	3.12e5		2756	11805	inactive
39	CG8584	DRSC07217	65473	49946		1413	4163	inactive
40	TotM (Turandot M)	DRSC02355	85787	47136		2853	5058	inactive
41	Ugt304A1 (UDP-glycosyltransferase family 304 member A1)	DRSC15127	79048	88400		2101	2464	inactive
42	mRpS10 (mitochondrial ribosomal protein S10)	DRSC15557	1.01e5	83552		3643	2650	inactive
43	CG3420	DRSC04995	1.17e5	79212		3046	4005	inactive
44	Cdk9 (Cyclin-dependent kinase 9)	DRSC04601	49122	38234		1844	4663	active
45	CG11594	DRSC08207	1.10e5	76976		4872	3073	inactive
46	CG13954	DRSC06442	98682	49072		2432	4054	inactive
47	Rpp14b (Ribonuclease P/MRP subunit p14 b)	DRSC15063	1.11e5	78827		4275	1717	inactive
48	CG14006	DRSC02338	79801	63312		1843	5383	inactive
49	grh (grainy head)	DRSC05680	1.75e5	3.31e5		5250	14336	inactive
50	grh (grainy head)	DRSC05683	76517	1.42e5		1885	4460	inactive
51	grh (grainy head)	DRSC07624	1.15e5	89784		4724	4021	inactive
52	grh (grainy head)	DRSC07625	79187	60215		1392	4629	inactive
53	CG31797	DRSC02476	73911	48388		1986	4820	inactive
54	CG31797	DRSC02477	77298	52691		2183	4852	inactive
55	Hecw (Hecw ubiquitin protein ligase)	DRSC18261	61898	1.58e5		1548	5784	inactive
56	Hecw (Hecw ubiquitin protein ligase)	DRSC18276	91610	2.63e5		2421	9484	inactive
57	lbe (ladybird early)	DRSC16985	5.07e5	1.73e5		26552	3223	inactive
58	TRAM	DRSC18178	1.16e5	2.63e5		4810	10187	inactive
59	TRAM	DRSC18651	78644	1.42e5		3370	5689	inactive
60	CG16826	DRSC02527	97328	56529		1987	5184	inactive
61	Oli (Olig family)	DRSC02866	72001	1.06e5		2840	3591	inactive
62	CG9396	DRSC16487	57859	77962		1888	2141	inactive
63	CG5446	DRSC02862	75456	35927		2214	3890	inactive
64	egr (eiger)	DRSC06233	1.03e5	70160		2838	5705	inactive
65	CG31482	DRSC12582	48796	88372		1415	2470	inactive
66	dpy (dumpy)	DRSC00233	4.86e5	1.58e5		24176	6912	inactive
67	dpy (dumpy)	DRSC00234	5.51e5	1.53e5		26569	6665	inactive
68	dpy (dumpy)	DRSC00472	1.08e5	60939		3072	6411	inactive
69	CG9029	DRSC03129	1.19e5	76050		3424	7717	inactive
70	CG11263	DRSC09832	27459	52177	49180	5718	3065	inactive
71	CG5377	DRSC15783	5.09e5	1.34e5		32944	389	inactive
72	CG3558	DRSC00615	89065	72551		4443	3513	inactive
73	Hsc70-3 (Heat shock protein 70 cognate 3)	DRSC20253	31536	1.37e5		1186	5617	inactive

9 consecutive reagents from above, quoted:
no.	predicted target	DRSC id	firefly Hh reporter signal, replicate 1	firefly Hh reporter signal, replicate 2	firefly Hh reporter signal, replicate 3	Renilla reference signal, replicate 1	Renilla reference signal, replicate 2	activity call
20	CG3744	DRSC15511	5.50e5	1.09e5		30461	3488	inactive
21	CCDC53 (Coiled-coil domain containing 53)	DRSC03056	74045	34368		2346	3852	inactive
22	CG2218	DRSC15428	1.11e5	1.09e5		2630	3429	inactive
23	CG6980	DRSC16162	1.31e5	72248		5177	2995	inactive
24	Kal1 (Kallmann syndrome 1)	DRSC15983	88791	49704		3814	2186	inactive
25	CG14823	DRSC10194	82404	71814		3473	3089	inactive
26	CG15767	DRSC18073	75101	1.73e5		3044	6813	inactive
27	RpL37A (Ribosomal protein L37A)	DRSC02899	49680	23948		2299	3891	active
28	MED15 (Mediator complex subunit 15)	DRSC00267	55216	1.02e5		3108	4171	inactive
